For the series, the target named is T1, SRF K165A (HA-SRF K165A) (UniProt P11831).
T1 sequence (looked up, limits assumed): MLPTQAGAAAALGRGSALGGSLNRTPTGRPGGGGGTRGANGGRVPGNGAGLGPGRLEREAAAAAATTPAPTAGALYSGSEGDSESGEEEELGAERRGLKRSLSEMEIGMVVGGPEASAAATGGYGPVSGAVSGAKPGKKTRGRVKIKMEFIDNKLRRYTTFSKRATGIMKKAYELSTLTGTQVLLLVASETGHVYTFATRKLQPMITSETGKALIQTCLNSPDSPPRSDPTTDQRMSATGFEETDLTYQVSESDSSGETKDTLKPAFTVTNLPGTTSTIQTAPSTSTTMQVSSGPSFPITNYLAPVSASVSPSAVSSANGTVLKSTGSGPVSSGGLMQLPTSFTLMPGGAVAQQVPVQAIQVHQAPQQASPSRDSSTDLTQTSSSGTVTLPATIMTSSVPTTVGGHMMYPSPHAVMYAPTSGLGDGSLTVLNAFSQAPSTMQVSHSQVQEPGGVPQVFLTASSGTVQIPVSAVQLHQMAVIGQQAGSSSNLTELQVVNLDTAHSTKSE
The experiment in a line: EMSA. As to conditions: LightShift chemiluminescent EMSA kit binding buffer (composition, salt and pH not given), 30 min at room temperature; 5% PAGE, 0.5x TBE, 100 V, 1 h; protein in an extract; protein details: HA; label: 3' biotin. (In EMSA bound probe runs differently from free probe, usually more slowly.)

The results in this text go back to article PMC8080764.

Construct, isoform or probe ends are uncertain for at least one entry. Where cells or extracts were used, other partners may take part. No signal at the amounts used counts as a negative. Protein sequences can lack the tags named with them. Weaker means in comparison with the reference protein, sequence or condition of that experiment.

For “AGAACCCATAAATGGGGTGC (double strand) [Acta1 SRE far (distal SRE)]”, the binding result is “no binding”.
Under “GACACCCAAATATGGCTTGG (double strand) [Acta1 SRE near (proximal SRE)]” stands “binds more weakly”.
